Data on 67 molecules can be found in PubChem BioAssay AID1458 (National Center for Advancing Translational Sciences (NCATS), 2008).

Out of some 210,000 compounds screened, about 5,900 (2.8%) were called active. About 5% were inconclusive and are not listed. Calls come from the whole dose curve; as a rule, active = well fitted activation curve with a large enough effect; inconclusive = small, poorly fitted or top-dose-only effect; inactive = no such curve, though single readings can be large or run the other way. Only a part is listed here, and it is no random draw. Where no call is shown, the source filed none.
Potency is the fitted concentration of half-maximal effect.

This test is described as follows: qHTS Assay for Enhancers of SMN2 Splice Variant Expression. For activity change, positive = activation: % of control where 0% means no effect. Note: nearly all actives have a fitted effect of over 55% in size. Conditions: HEK293 SMN2-luciferase splicing reporter, luminescence, 30-36 h; activity change, positive = activation: at 46.1 µM (top of the series) unless noted. In short, it runs like this:
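HEK293 cells carry an SMN2 […]–luciferase reporter in which exon 7 inclusion puts luciferase in frame. Cells were plated 10-12 h before compound addition, then incubated 30-36 h at 37C. ONE-Glo luminescence was read; sodium butyrate at 4.5 mM final served as control.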
In general terms: In qHTS, concentration-response curves come from the screen itself.
In the case of `NC(=O)CSc1nnc(-c2cc3ccccc3o2)n1Cc1ccccc1`, the activity change, positive = activation is 23.6%. Same read-out and setting: the same measure for `CCOc1cc(CO)ccc1OCC(=O)N1CCCCC1`: 38.1%. As for `CC(/C=N/NC(=O)Cc1cccs1)=C\c1ccccc1`, the activity change, positive = activation is 69.7%.

As to `O=C(COC(=O)CCc1ccc(S(=O)(=O)N2CCOCC2)cc1)Nc1ccc(Cl)cn1`, the activity change, positive = activation is 30.8%. Regarding `COc1ccc(Cc2nc3ccccc3n2Cc2ccccc2F)cc1`, the “activity change, positive = activation” value is inactive: -34.4%. For the molecule `O=C(Nc1nccs1)c1ccc(Br)c(S(=O)(=O)N2CCOCC2)c1`, the “activity change, positive = activation” value was inactive: -48.6%.

Regarding `Cc1cc(C)c(C#N)c(SCc2nc3ccccc3[nH]2)n1`, the Potency was active: 10 µM.

As for `Cc1cc(NC(=O)CCC(=O)N(CC(=O)NC2CCCC2)Cc2ccco2)no1`, the activity change, positive = activation is 32.3%. On to `CCn1c(C(=O)N2CCCC(C(=O)N3CCN(c4cc(C)ccc4C)CC3)C2)cc2sccc21` (configuration not stated), for which the “activity change, positive = activation” value was inactive: -42.7%. In the case of `Cc1ccc2nc(-c3ccc(NC(=O)COc4ccccc4)cc3)sc2c1`, the Potency is active: 1.26 µM.

With `Cc1ccc(NS(=O)(=O)c2cccc(C(=O)NNC(=O)NC3CCCCC3)c2)c(C)c1`, the activity change, positive = activation came to 44.8%. With `Nc1c(C(=O)c2ccccc2)oc2ccc(Br)cc12`, the Potency is active: 15.8 µM. With `Clc1ccc(Cn2ccc(C3CC3)n2)cc1`, the activity change, positive = activation came to 49.1%.

`CC(=O)c1cccc(NC(=O)c2cnn3ccccc23)c1`: the activity change, positive = activation is 114%. On the same count and under the same terms, the same measure for `Cc1cc(C)nc(NC(=O)/C=C/c2ccc3c(c2)OCO3)c1`: 198%; for `CC12C(=O)N(Cc3ccco3)C(=O)C1C1c3ccccc3C2c2ccccc21` (configuration not stated): inactive: -36.2%.

Take `CS(=O)(=O)N1CCC(c2noc(-c3ccc(C(F)(F)F)cc3)n2)CC1`: the activity change, positive = activation is -73.3%.

On to `CCOc1cc(NC(=O)C2CCCO2)c(OCC)cc1NC(=O)C1CC1` (configuration not stated), for which the activity change, positive = activation stood at 43.2%. For `Cc1ccc2cc3cc(C(=O)N4CCCCC4C)oc3nc2c1` (configuration not stated), the Potency is active: 11.2 µM. Turning to `COCCNC(=O)c1ccc(-n2c(SCc3cc(F)ccc3F)nc3ccccc3c2=O)cc1`, the activity change, positive = activation is -28.4%. With `C/C(=N\Nc1ncc(Cl)cc1Cl)c1cccs1`, the Potency is active: 11.2 µM. For `Cc1nc2ccc(-c3nc4cc(N)ccc4o3)cc2[nH]1`, the Potency is active: 2.82 µM. For the molecule `CCOC(=O)/C(C#N)=C/c1ccc(OC)c(OC)c1`, the activity change, positive = activation came out at 40.4%.

As for `CCc1nnc(NC(=O)c2c(O)c3cccc4c3n(c2=O)CC4)s1`, the activity change, positive = activation is -27.9%. Same read-out and setting: the same measure for `CC(C)(C)c1cc(CN2CCCCC2)cc(C(C)(C)C)c1O`: 17.2%; for `CCN(CC)c1ccc(/C=C(/C#N)C(=O)NCc2ccccc2)o1`: 6.41%.

As to `CCc1ccc(C(=O)COC(=O)c2ccc(-c3nnc(-c4ccccc4)o3)cc2)cc1`, the Potency was active: 7.94 µM.

On to `Cc1ccc([N+](=O)[O-])cc1N=Nc1c(-c2ccc([N+](=O)[O-])cc2)[nH]n(C(N)=S)c1=O`, for which the “activity change, positive = activation” value is inactive: -70.7%. As to `Nc1cc(C2CCCC2)nn1-c1ccccc1`, the Potency was active: 20 µM. Regarding `O=P1(Nn2cnnc2)C=C(c2ccccc2)OC(c2ccccc2)=C1`, the activity change, positive = activation stood at 30.2%. In the case of `Cc1ccc2nc(-c3ccc(NC(=O)CCS(=O)(=O)c4ccccc4)cc3)sc2c1`, the activity change, positive = activation was -64.1%. In the case of `O=C(NC1CCCC1)c1ccc(COCC(F)(F)F)o1`, the activity change, positive = activation worked out at 36.4%. Consider `Cc1cccc(-c2nnc(SCC(=O)N3CCCCC3)o2)c1`, for which the Potency is active: 4.47 µM.

As to `CCn1c(Sc2ccc(N)cc2Cl)nc2ccccc21`, the activity change, positive = activation stood at 49.1%.

Regarding `COc1cc(NC(=O)c2ccccc2Cl)ccc1NC(=O)c1cccs1`, the Potency is active: 22.4 µM. As for `Cc1ccccc1/C=N/Nc1nc2ccccc2[nH]1`, the activity change, positive = activation amounted to 82.4%. For the molecule `C=CCN1C(=O)NC(c2ccccc2)(C(F)(F)F)S/C1=C(\C#N)c1nnc(N2CCOCC2)n1-c1ccccc1` (configuration not stated), the activity change, positive = activation worked out at 57.9%. `CC1CCN(c2ccc(NC(=O)c3cccnc3)cc2)CC1`: the Potency is active: 28.2 µM. Consider `Cc1ccc(Sc2ncccc2C(=O)O)cc1C`, for which the activity change, positive = activation came to 34.4%. For the molecule `Cc1ccc(/C=C/c2nnc(-c3cccs3)o2)cc1`, the Potency was active: 10 µM. Consider `CN1C(=O)C2(C(C#N)=C(N)Oc3n[nH]c(-c4ccc(Cl)cc4)c32)c2ccccc21` (configuration not stated), for which the activity change, positive = activation was found to be 29.4%. With `Cc1cc(/C=C2/SC(=S)N(c3ccc([N+](=O)[O-])cc3)C2=O)c(C)n1-c1cccnc1`, the “activity change, positive = activation” value was inactive: -101%. Still for that read-out and setting: the same measure for `CCOC(=O)COc1ccc2ccccc2c1/C=C/[N+](=O)[O-]`: -112%. In the case of `NC(=O)c1c(NC(=O)c2cc3ccccc3o2)sc2c1CCC2`, the Potency was active: 2.24 µM. With `C(=N\Nc1nc2ccccc2[nH]1)/c1ccccc1`, the Potency was active: 12.6 µM. `CC1=C(Sc2ccccn2)C(=O)NC(C)(C)C1`: the activity change, positive = activation worked out at 41.4%. Still for that read-out and setting: the same measure for `CC(=O)c1ccc(N2CCN(C(=S)Nc3ccccc3C(F)(F)F)CC2)cc1`: inactive: -33.9%. `COC(=O)c1ccc(-c2ncc(-c3cccc4ccccc34)o2)cc1`: the Potency was active: 11.2 µM. With `CN1/C(=C\C=[N+](C)c2ccccc2)C(C)(C)c2ccccc21`, the activity change, positive = activation is -42%. As to `O=C(O)CCCN1C(=O)/C(=C/c2ccc(-c3nc4ccccc4s3)o2)SC1=S`, the Potency is active: 17.8 µM.

As for `O=C(Nc1ccccc1)N1CC[C@@]2(CCCN(C(=O)c3csnn3)C2)C1`, the “activity change, positive = activation” value is inactive: -18.6%.

Consider `C/C=C/c1ccc(OCCCNC2CCCC2)c(OC)c1`, for which the activity change, positive = activation was 33.8%. As for `O=C(N=Nc1c(O)[nH]c2ccccc12)c1ccc2c(c1)OCO2`, the Potency was active: 11.2 µM. As to `O=[N+]([O-])c1ccc(/C=C/c2nc3ccc([N+](=O)[O-])cc3[nH]2)cc1`, the activity change, positive = activation is -40.1%.

Turning to `O=C(Nc1ccccc1C(=O)N1CCOCC1)C1CCCO1` (configuration not stated), the activity change, positive = activation was determined as 40.8%.

Turning to `O=C(/C=C/c1ccc2c(c1)OCO2)Nc1cccnc1`, the Potency was active: 12.6 µM. `Cc1noc(C)c1S(=O)(=O)N1CCC(C(=O)N2CCN(c3ccccc3Cl)CC2)CC1`: the “activity change, positive = activation” value was inactive: -53.3%. Same read-out and setting: the same measure for `CC(C)CCn1c(CN2CCN(Cc3ccccc3)CC2)nc2c1c(=O)[nH]c(=O)n2C`: 35.3%; for `O=C(/C=C\c1cccs1)N1CCN(Cc2ccc3c(c2)OCO3)CC1`: inactive: -55.6%; for `O=c1c2cnn(-c3ccccc3)c2nc(-c2ccco2)n1-c1ccccc1`: -47.9%.

For `COc1cccc(C(=O)Nc2ccc(C(F)(F)F)n(C)c2=O)c1`, the activity change, positive = activation was 185%. Turning to `O=C(Nc1ccc(CN2CCOCC2)cc1)c1cccs1`, the Potency was active: 12.6 µM. `Cc1nn(C)cc1CN(C)C(=O)c1nn2c(c1Cl)NC(c1cccs1)CC2C(F)(F)F` (configuration not stated): the activity change, positive = activation was -36.3%. Consider `CN1C(=O)N(C)C2=NNC=NC2(O)C1=O` (configuration not stated), for which the “activity change, positive = activation” value was inactive: -74%. For `COC(=O)C(C)N1C(=O)S/C(=C/c2cc(C)n(-c3ccccn3)c2C)C1=O` (configuration not stated), the “activity change, positive = activation” value is inactive: -41.9%. As for `O=C(CCC(=O)N1CCN(S(=O)(=O)c2ccc(Cl)cc2)CC1)NC1CCCc2ccccc21` (configuration not stated), the activity change, positive = activation was -30.3%.

With `COc1ccc(C(=O)Nc2sc(C)c(C)c2CN2CCOCC2)cc1`, the Potency is active: 12.6 µM.
